At least one compound was matched to its structure with a doubt left.
Molecular target: T1, airway epithelial sodium currents (epithelial sodium channel, ENaC) (UniProt A0A8I3MKE6+A0A8I3Q679+Q95165)
T1 sequence (A0A8I3MKE6 1-646): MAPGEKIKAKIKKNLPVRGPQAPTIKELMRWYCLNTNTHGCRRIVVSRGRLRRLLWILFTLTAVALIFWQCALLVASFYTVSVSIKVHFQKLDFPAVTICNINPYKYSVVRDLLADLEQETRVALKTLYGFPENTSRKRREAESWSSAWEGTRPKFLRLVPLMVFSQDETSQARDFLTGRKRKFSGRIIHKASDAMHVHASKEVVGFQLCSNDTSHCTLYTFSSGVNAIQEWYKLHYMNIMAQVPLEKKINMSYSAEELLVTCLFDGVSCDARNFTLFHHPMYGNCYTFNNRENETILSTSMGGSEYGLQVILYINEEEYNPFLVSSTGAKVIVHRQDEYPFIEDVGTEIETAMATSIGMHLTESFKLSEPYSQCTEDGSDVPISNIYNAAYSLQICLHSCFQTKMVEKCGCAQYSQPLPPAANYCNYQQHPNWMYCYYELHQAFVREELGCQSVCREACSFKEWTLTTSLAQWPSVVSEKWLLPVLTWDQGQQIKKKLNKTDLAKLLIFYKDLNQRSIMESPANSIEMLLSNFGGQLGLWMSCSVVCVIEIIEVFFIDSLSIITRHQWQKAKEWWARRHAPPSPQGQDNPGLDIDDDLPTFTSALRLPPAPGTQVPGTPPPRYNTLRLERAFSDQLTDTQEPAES
T1 sequence (A0A8I3Q679 1-649): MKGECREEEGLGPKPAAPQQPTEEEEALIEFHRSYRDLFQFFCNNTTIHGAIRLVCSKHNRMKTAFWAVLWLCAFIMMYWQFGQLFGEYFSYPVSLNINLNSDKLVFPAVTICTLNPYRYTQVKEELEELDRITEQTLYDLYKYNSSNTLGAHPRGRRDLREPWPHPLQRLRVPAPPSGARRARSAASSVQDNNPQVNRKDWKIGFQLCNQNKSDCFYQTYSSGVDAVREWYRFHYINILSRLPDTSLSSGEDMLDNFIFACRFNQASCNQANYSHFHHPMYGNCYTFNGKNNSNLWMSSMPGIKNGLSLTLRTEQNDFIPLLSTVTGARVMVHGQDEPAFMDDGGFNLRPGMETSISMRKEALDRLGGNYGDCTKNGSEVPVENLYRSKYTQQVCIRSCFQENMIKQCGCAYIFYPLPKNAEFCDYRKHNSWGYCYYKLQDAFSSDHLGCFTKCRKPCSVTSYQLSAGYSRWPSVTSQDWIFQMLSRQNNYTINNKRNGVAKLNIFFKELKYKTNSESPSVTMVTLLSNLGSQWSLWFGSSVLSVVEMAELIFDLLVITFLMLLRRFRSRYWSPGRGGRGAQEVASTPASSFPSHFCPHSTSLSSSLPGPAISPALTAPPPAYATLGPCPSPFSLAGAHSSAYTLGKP
T1 sequence (Q95165 1-641): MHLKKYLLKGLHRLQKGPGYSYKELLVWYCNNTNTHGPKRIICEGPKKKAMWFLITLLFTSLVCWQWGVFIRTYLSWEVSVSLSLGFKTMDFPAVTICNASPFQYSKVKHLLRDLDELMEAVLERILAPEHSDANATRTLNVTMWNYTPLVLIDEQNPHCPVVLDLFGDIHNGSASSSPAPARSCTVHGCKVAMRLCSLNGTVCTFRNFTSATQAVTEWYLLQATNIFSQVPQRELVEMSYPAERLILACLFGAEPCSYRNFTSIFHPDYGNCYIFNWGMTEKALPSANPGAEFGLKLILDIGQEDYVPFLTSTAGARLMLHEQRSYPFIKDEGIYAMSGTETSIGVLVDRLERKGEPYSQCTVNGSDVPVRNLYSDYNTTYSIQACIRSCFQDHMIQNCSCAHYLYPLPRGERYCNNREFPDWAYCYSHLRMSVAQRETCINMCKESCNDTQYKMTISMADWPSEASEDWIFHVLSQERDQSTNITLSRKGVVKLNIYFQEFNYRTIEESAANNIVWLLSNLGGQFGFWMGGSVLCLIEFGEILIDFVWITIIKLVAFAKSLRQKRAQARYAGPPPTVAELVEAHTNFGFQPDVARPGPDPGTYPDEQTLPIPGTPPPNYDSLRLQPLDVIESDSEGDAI
Test: Sodium channel blocking activity: short circuit current (ISC) in airway epithelial monolayers in Ussing chambers

Structure (SMILES): NC(=NCc1ccccc1)NC(=O)c1nc(Cl)c(N)nc1N [Benzamil]
- Fold Increase in Potency (Relative to Amiloride): 16.5

Reference: US9849129B2, “Sodium channel blockers for skin disorders” (PARION SCIENCES, INC., priority 2015, dated 2017)
